According to paper PMC5035054:
Results are given in words; binding and its absence hold for the method and conditions named. Binding seen in cells or lysates may run through a third protein. These calls come from enrichment with a bait or labelling near it, and not all partners need be listed. A no says only that the protein was not detected with the bait.

By UniProt entry, the sequences of proteins in these tests, tags left out.
UniProt P08579: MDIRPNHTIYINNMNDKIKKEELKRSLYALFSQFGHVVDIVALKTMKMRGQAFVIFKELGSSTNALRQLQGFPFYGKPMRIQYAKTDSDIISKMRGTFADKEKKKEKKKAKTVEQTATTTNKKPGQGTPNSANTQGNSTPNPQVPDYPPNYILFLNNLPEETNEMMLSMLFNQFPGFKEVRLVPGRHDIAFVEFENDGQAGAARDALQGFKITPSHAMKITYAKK

B1: TADA2beta (protein, UniProt Q86TJ2 1-420)
chain: MAELGKKYCVYCLAEVSPLRFRCTECQDIELCPECFSAGAEIGHHRRYHGYQLVDGGRFTLWGPEAEGGWTSREEQLLLDAIEQFGFGNWEDMAAHVGASRTPQEVMEHYVSMYIHGNLGKACIPDTIPNRVTDHTCPSGGPLSPSLTTPLPPLDISVAEQQQLGYMPLRDDYEIEYDQDAETLISGLSVNYDDDDVEIELKRAHVDMYVRKLKERQRRKNIARDYNLVPAFLGKDKKEKEKALKRKITKEEKELRLKLRPLYQFMSCKEFDDLFENMHKEKMLRAKIRELQRYRRNGITKMEESAEYEAARHKREKRKENKNLAGSKRGKEDGKDSEFAAIENLPGFELLSDREKVLCSSLNLSPARYVTVKTIIIKDHLQKRQGIPSKSRLPSYLDKVLKKRILNFLTESGWISRDAS
B2: TOX4 (protein, UniProt O94842 1-621)
chain: MEFPGGNDNYLTITGPSHPFLSGAETFHTPSLGDEEFEIPPISLDSDPSLAVSDVVGHFDDLADPSSSQDGSFSAQYGVQTLDMPVGMTHGLMEQGGGLLSGGLTMDLDHSIGTQYSANPPVTIDVPMTDMTSGLMGHSQLTTIDQSELSSQLGLSLGGGTILPPAQSPEDRLSTTPSPTSSLHEDGVEDFRRQLPSQKTVVVEAGKKQKAPKKRKKKDPNEPQKPVSAYALFFRDTQAAIKGQNPNATFGEVSKIVASMWDSLGEEQKQVYKRKTEAAKKEYLKALAAYKDNQECQATVETVELDPAPPSQTPSPPPMATVDPASPAPASIEPPALSPSIVVNSTLSSYVANQASSGAGGQPNITKLIITKQMLPSSITMSQGGMVTVIPATVVTSRGLQLGQTSTATIQPSQQAQIVTRSVLQAAAAAAAAASMQLPPPRLQPPPLQQMPQPPTQQQVTILQQPPPLQAMQQPPPQKVRINLQQQPPPLQIKSVPLPTLKMQTTLVPPTVESSPERPMNNSPEAHTVEAPSPETICEMITDVVPEVESPSQMDVELVSGSPVALSPQPRCVRSGCENPPIVSKDWDNEYCSNECVVKHCRDVFLAWVASRNSNTVVFVK
B3: MBD3L2 (protein, UniProt Q8NHZ7 1-208)
chain: MGEPAFTSFPSLPVLGKLKRNMMPWALQKKREIHMAKAHRRRAARSALPMRLTSCIFRRPVTRIRSHPDNQVRRRKGDEHLEKPQQLCAYRRLQALQPCSSQGEGSSPLHLESVLSILAPGTAGESLDRAGAERVRSPLEPTPGRFPAVAGGPTPGMGCQLPPPLSGQLVTPADIRRQARRVKKARERLAKALQADRLARRAEMLTGG
B4: C14ORF43 (protein, UniProt Q6PJG2 1-1045)
chain: MNLQAQPKAQNKRKRCLFGGQEPAPKEQPPPLQPPQQSIRVKEEQYLGHEGPGGAVSTSQPVELPPPSSLALLNSVVYGPERTSAAMLSQQVASVKWPNSVMAPGRGPERGGGGGVSDSSWQQQPGQPPPHSTWNCHSLSLYSATKGSPHPGVGVPTYYNHPEALKREKAGGPQLDRYVRPMMPQKVQLEVGRPQAPLNSFHAAKKPPNQSLPLQPFQLAFGHQVNRQVFRQGPPPPNPVAAFPPQKQQQQQQPQQQQQQQQAALPQMPLFENFYSMPQQPSQQPQDFGLQPAGPLGQSHLAHHSMAPYPFPPNPDMNPELRKALLQDSAPQPALPQVQIPFPRRSRRLSKEGILPPSALDGAGTQPGQEATGNLFLHHWPLQQPPPGSLGQPHPEALGFPLELRESQLLPDGERLAPNGREREAPAMGSEEGMRAVSTGDCGQVLRGGVIQSTRRRRRASQEANLLTLAQKAVELASLQNAKDGSGSEEKRKSVLASTTKCGVEFSEPSLATKRAREDSGMVPLIIPVSVPVRTVDPTEAAQAGGLDEDGKGPEQNPAEHKPSVIVTRRRSTRIPGTDAQAQAEDMNVKLEGEPSVRKPKQRPRPEPLIIPTKAGTFIAPPVYSNITPYQSHLRSPVRLADHPSERSFELPPYTPPPILSPVREGSGLYFNAIISTSTIPAPPPITPKSAHRTLLRTNSAEVTPPVLSVMGEATPVSIEPRINVGSRFQAEIPLMRDRALAAADPHKADLVWQPWEDLESSREKQRQVEDLLTAACSSIFPGAGTNQELALHCLHESRGDILETLNKLLLKKPLRPHNHPLATYHYTGSDQWKMAERKLFNKGIAIYKKDFFLVQKLIQTKTVAQCVEFYYTYKKQVKIGRNGTLTFGDVDTSDEKSAQEEVEVDIKTSQKFPRVPLPRRESPSEERLEPKREVKEPRKEGEEEVPEIQEKEEQEEGRERSRRAAAVKATQTLQANESASDILILRSHESNAPGSAGGQASEKPREGTGKSRRALPFSEKKKKTETFSKTQNQENTFPCKKCGR
B5: RCF1 (protein, UniProt P35251 1-1148)
chain: MDIRKFFGVIPSGKKLVSETVKKNEKTKSDEETLKAKKGIKEIKVNSSRKEDDFKQKQPSKKKRIIYDSDSESEETLQVKNAKKPPEKLPVSSKPGKISRQDPVTYISETDEEDDFMCKKAASKSKENGRSTNSHLGTSNMKKNEENTKTKNKPLSPIKLTPTSVLDYFGTGSVQRSNKKMVASKRKELSQNTDESGLNDEAIAKQLQLDEDAELERQLHEDEEFARTLAMLDEEPKTKKARKDTEAGETFSSVQANLSKAEKHKYPHKVKTAQVSDERKSYSPRKQSKYESSKESQQHSKSSADKIGEVSSPKASSKLAIMKRKEESSYKEIEPVASKRKENAIKLKGETKTPKKTKSSPAKKESVSPEDSEKKRTNYQAYRSYLNREGPKALGSKEIPKGAENCLEGLIFVITGVLESIERDEAKSLIERYGGKVTGNVSKKTNYLVMGRDSGQSKSDKAAALGTKIIDEDGLLNLIRTMPGKKSKYEIAVETEMKKESKLERTPQKNVQGKRKISPSKKESESKKSRPTSKRDSLAKTIKKETDVFWKSLDFKEQVAEETSGDSKARNLADDSSENKVENLLWVDKYKPTSLKTIIGQQGDQSCANKLLRWLRNWQKSSSEDKKHAAKFGKFSGKDDGSSFKAALLSGPPGVGKTTTASLVCQELGYSYVELNASDTRSKSSLKAIVAESLNNTSIKGFYSNGAASSVSTKHALIMDEVDGMAGNEDRGGIQELIGLIKHTKIPIICMCNDRNHPKIRSLVHYCFDLRFQRPRVEQIKGAMMSIAFKEGLKIPPPAMNEIILGANQDIRQVLHNLSMWCARSKALTYDQAKADSHRAKKDIKMGPFDVARKVFAAGEETAHMSLVDKSDLFFHDYSIAPLFVQENYIHVKPVAAGGDMKKHLMLLSRAADSICDGDLVDSQIRSKQNWSLLPAQAIYASVLPGELMRGYMTQFPTFPSWLGKHSSTGKHDRIVQDLALHMSLRTYSSKRTVNMDYLSLLRDALVQPLTSQGVDGVQDVVALMDTYYLMKEDFENIMEISSWGGKPSPFSKLDPKVKAAFTRAYNKEAHLTPYSLQAIKASRHSTSPSLDSEYNEELNEDDSQSDEKDQDAIETDAMIKKKTKSSKPSKPEKDKEPRKGKGKSSKK
B6: Polycomb group protein PHC1 (protein, UniProt P78364 1-1004)
chain: METESEQNSNSTNGSSSSGGSSRPQIAQMSLYERQAVQALQALQRQPNAAQYFHQFMLQQQLSNAQLHSLAAVQQATIAASRQASSPNTSTTQQQTTTTQASINLATTSAAQLISRSQSVSSPSATTLTQSVLLGNTTSPPLNQSQAQMYLRPQLGNLLQVNRTLGRNVPLASQLILMPNGAVAAVQQEVPSAQSPGVHADADQVQNLAVRNQQASAQGPQMQGSTQKAIPPGASPVSSLSQASSQALAVAQASSGATNQSLNLSQAGGGSGNSIPGSMGPGGGGQAHGGLGQLPSSGMGGGSCPRKGTGVVQPLPAAQTVTVSQGSQTEAESAAAKKAEADGSGQQNVGMNLTRTATPAPSQTLISSATYTQIQPHSLIQQQQQIHLQQKQVVIQQQIAIHHQQQFQHRQSQLLHTATHLQLAQQQQQQQQQQQQQQQPQATTLTAPQPPQVPPTQQVPPSQSQQQAQTLVVQPMLQSSPLSLPPDAAPKPPIPIQSKPPVAPIKPPQLGAAKMSAAQQPPPHIPVQVVGTRQPGTAQAQALGLAQLAAAVPTSRGMPGTVQSGQAHLASSPPSSQAPGALQECPPTLAPGMTLAPVQGTAHVVKGGATTSSPVVAQVPAAFYMQSVHLPGKPQTLAVKRKADSEEERDDVSTLGSMLPAKASPVAESPKVMDEKSSLGEKAESVANVNANTPSSELVALTPAPSVPPPTLAMVSRQMGDSKPPQAIVKPQILTHIIEGFVIQEGAEPFPVGCSQLLKESEKPLQTGLPTGLTENQSGGPLGVDSPSAELDKKANLLKCEYCGKYAPAEQFRGSKRFCSMTCAKRYNVSCSHQFRLKRKKMKEFQEANYARVRRRGPRRSSSDIARAKIQGKCHRGQEDSSRGSDNSSYDEALSPTSPGPLSVRAGHGERDLGNPNTAPPTPELHGINPVFLSSNPSRWSVEEVYEFIASLQGCQEIAEEFRSQEIDGQALLLLKEEHLMSAMNIKLGPALKICAKINVLKET
B7: TSPYL1 (protein, UniProt Q9H0U9 1-437)
chain: MSGLDGVKRTTPLQTHSIIISDQVPSDQDAHQYLRLRDQSEATQVMAEPGEGGSETVALPPPPPSEEGGVPQDAAGRGGTPQIRVVGGRGHVAIKAGQEEGQPPAEGLAAASVVMAADRSLKKGVQGGEKALEICGAQRSASELTAGAEAEAEEVKTGKCATVSAAVAERESAEVVKEGLAEKEVMEEQMEVEEQPPEGEEIEVAEEDRLEEEAREEEGPWPLHEALRMDPLEAIQLELDTVNAQADRAFQQLEHKFGRMRRHYLERRNYIIQNIPGFWMTAFRNHPQLSAMIRGQDAEMLRYITNLEVKELRHPRTGCKFKFFFRRNPYFRNKLIVKEYEVRSSGRVVSLSTPIIWRRGHEPQSFIRRNQDLICSFFTWFSDHSLPESDKIAEIIKEDLWPNPLQYYLLREGVRRARRRPLREPVEIPRPFGFQSG
B8: SMC1A (protein, UniProt Q14683 1-1233)
chain: MGFLKLIEIENFKSYKGRQIIGPFQRFTAIIGPNGSGKSNLMDAISFVLGEKTSNLRVKTLRDLIHGAPVGKPAANRAFVSMVYSEEGAEDRTFARVIVGGSSEYKINNKVVQLHEYSEELEKLGILIKARNFLVFQGAVESIAMKNPKERTALFEEISRSGELAQEYDKRKKEMVKAEEDTQFNYHRKKNIAAERKEAKQEKEEADRYQRLKDEVVRAQVQLQLFKLYHNEVEIEKLNKELASKNKEIEKDKKRMDKVEDELKEKKKELGKMMREQQQIEKEIKEKDSELNQKRPQYIKAKENTSHKIKKLEAAKKSLQNAQKHYKKRKGDMDELEKEMLSVEKARQEFEERMEEESQSQGRDLTLEENQVKKYHRLKEEASKRAATLAQELEKFNRDQKADQDRLDLEERKKVETEAKIKQKLREIEENQKRIEKLEEYITTSKQSLEEQKKLEGELTEEVEMAKRRIDEINKELNQVMEQLGDARIDRQESSRQQRKAEIMESIKRLYPGSVYGRLIDLCQPTQKKYQIAVTKVLGKNMDAIIVDSEKTGRDCIQYIKEQRGEPETFLPLDYLEVKPTDEKLRELKGAKLVIDVIRYEPPHIKKALQYACGNALVCDNVEDARRIAFGGHQRHKTVALDGTLFQKSGVISGGASDLKAKARRWDEKAVDKLKEKKERLTEELKEQMKAKRKEAELRQVQSQAHGLQMRLKYSQSDLEQTKTRHLALNLQEKSKLESELANFGPRINDIKRIIQSREREMKDLKEKMNQVEDEVFEEFCREIGVRNIREFEEEKVKRQNEIAKKRLEFENQKTRLGIQLDFEKNQLKEDQDKVHMWEQTVKKDENEIEKLKKEEQRHMKIIDETMAQLQDLKNQHLAKKSEVNDKNHEMEEIRKKLGGANKEMTHLQKEVTAIETKLEQKRSDRHNLLQACKMQDIKLPLSKGTMDDISQEEGSSQGEDSVSGSQRISSIYAREALIEIDYGDLCEDLKDAQAEEEIKQEMNTLQQKLNEQQSVLQRIAAPNMKAMEKLESVRDKFQETSDEFEAARKRAKKAKQAFEQIKKERFDRFNACFESVATNIDEIYKALSRNSSAQAFLGPENPEEPYLDGINYNCVAPGKRFRPMDNLSGGEKTVAALALLFAIHSYKPAPFFVLDEIDAALDNTNIGKVANYIKEQSTCNFQAIVISLKEEFYTKAESLIGVYPEQGDCVISKVLTFDLTKYPDANPNPNEQ

Biological target: FLAG-V5-tagged U2-B” (FV5-U2-B”) (UniProt P08579)
Assay: affinity purification with mass spectrometry; in vitro splicing reaction of NEB” nuclear extract with AdML pre-mRNA and ATPγS, Sephacryl-S500 gel filtration, pooled spliceosome fractions on anti-FLAG M2 Affinity Gel, mass spectrometry; two independent experiments

Binder	binding
B1	no binding
B2	binds
B3	binds
B4	binds
B5	no binding
B6	no binding
B7	binds
B8	binds
